Assay: peptide synthesis
Conditions: late stage modification step

Di-NαA1,NεB29-t-Boc-Insulin showed a step yield of 26.7%.

From patent US20030118510A1 (priority 2001, published 2003)
